{"source": "PubChem BioAssay AID743121 (NCATS, 2013)", "aim": "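Genes whose silencing strengthens cell killing by camptothecin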 (primary screen)", "system": "MDA-MB-231 cells, a human breast cancer line", "knock-down reagent": "single siRNA against human genes, 20 nM siRNA (0.8 pmol per well)", "timing": "120 h (drug added 48 h after transfection, read 72 h later)", "conditions": "camptothecin 20 nM (about EC30) for 72 h; vehicle 0.1% DMSO in parallel plates", "measured": "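CellTiter-Glo ATP signal, scaled to control siRNA as percent viability; sensitisation given as log2 of untreated divided by camptothecin-treated viability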", "direction": "log2 vehicle/camptothecin viability: higher = stronger sensitisation to camptothecin; viability with camptothecin: higher = more viable cells", "units": "viability with camptothecin in % of control", "hit rule": "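Each gene scored by redundant siRNA activity (RSA) over its individual siRNA ratios; a gene is called active at p < 0.001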", "note": "Here is one part, drawn at random, of about 26,000 reagents tested. Of all reagents, 167 (0.63%) were called active. 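Calls are per gene from RSA p-values that are not deposited; an individual active-marked siRNA can sensitise only weakly.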 Reagents against one gene are numbered here. Not all columns of the deposit are shown. Reagent sequences are not shown."}
{"gene symbol": "SLC40A1", "siRNA no.": 1, "log2 vehicle/camptothecin viability": -0.223, "viability with camptothecin": 105, "outcome": "inactive"}
{"gene symbol": "SLC40A1", "siRNA no.": 2, "log2 vehicle/camptothecin viability": -0.386, "viability with camptothecin": 53.2, "outcome": "inactive"}
{"gene symbol": "SLC40A1", "siRNA no.": 3, "log2 vehicle/camptothecin viability": -0.51, "viability with camptothecin": 105, "outcome": "inactive"}
{"gene symbol": "SLC40A1", "siRNA no.": 4, "log2 vehicle/camptothecin viability": -0.181, "viability with camptothecin": 58.5, "outcome": "inactive"}
{"gene symbol": "NME6", "siRNA no.": 1, "log2 vehicle/camptothecin viability": -0.139, "viability with camptothecin": 83.3, "outcome": "inactive"}
{"gene symbol": "NME6", "siRNA no.": 2, "log2 vehicle/camptothecin viability": 0.0501, "viability with camptothecin": 54.6, "outcome": "inactive"}
{"gene symbol": "NME6", "siRNA no.": 3, "log2 vehicle/camptothecin viability": -0.0946, "viability with camptothecin": 86.4, "outcome": "inactive"}
{"gene symbol": "NME6", "siRNA no.": 4, "log2 vehicle/camptothecin viability": -0.227, "viability with camptothecin": 113, "outcome": "inactive"}
{"gene symbol": "ITGA4", "siRNA no.": 1, "log2 vehicle/camptothecin viability": -0.341, "viability with camptothecin": 68.8, "outcome": "inactive"}
{"gene symbol": "ITGA4", "siRNA no.": 2, "log2 vehicle/camptothecin viability": 0.21, "viability with camptothecin": 71.6, "outcome": "inactive"}
{"gene symbol": "ITGA4", "siRNA no.": 3, "log2 vehicle/camptothecin viability": -0.631, "viability with camptothecin": 81, "outcome": "inactive"}
{"gene symbol": "ITGA4", "siRNA no.": 4, "log2 vehicle/camptothecin viability": -0.0608, "viability with camptothecin": 94, "outcome": "inactive"}
{"gene symbol": "TFAP2B", "siRNA no.": 1, "log2 vehicle/camptothecin viability": -0.551, "viability with camptothecin": 58.9, "outcome": "inactive"}
{"gene symbol": "TFAP2B", "siRNA no.": 2, "log2 vehicle/camptothecin viability": -0.241, "viability with camptothecin": 81.1, "outcome": "inactive"}
{"gene symbol": "TFAP2B", "siRNA no.": 3, "log2 vehicle/camptothecin viability": -0.243, "viability with camptothecin": 97.1, "outcome": "inactive"}
{"gene symbol": "TFAP2B", "siRNA no.": 4, "log2 vehicle/camptothecin viability": -0.00703, "viability with camptothecin": 69.1, "outcome": "inactive"}
{"gene symbol": "NPTXR", "siRNA no.": 1, "log2 vehicle/camptothecin viability": 0.0079, "viability with camptothecin": 104, "outcome": "inactive"}
{"gene symbol": "NPTXR", "siRNA no.": 2, "log2 vehicle/camptothecin viability": -0.219, "viability with camptothecin": 97.8, "outcome": "inactive"}
{"gene symbol": "NPTXR", "siRNA no.": 3, "log2 vehicle/camptothecin viability": -0.43, "viability with camptothecin": 116, "outcome": "inactive"}
{"gene symbol": "NPTXR", "siRNA no.": 4, "log2 vehicle/camptothecin viability": -0.343, "viability with camptothecin": 51.9, "outcome": "inactive"}
{"gene symbol": "PAG1", "siRNA no.": 1, "log2 vehicle/camptothecin viability": -0.177, "viability with camptothecin": 94.4, "outcome": "inactive"}
{"gene symbol": "PAG1", "siRNA no.": 2, "log2 vehicle/camptothecin viability": -0.265, "viability with camptothecin": 97.3, "outcome": "inactive"}
{"gene symbol": "PAG1", "siRNA no.": 3, "log2 vehicle/camptothecin viability": -0.385, "viability with camptothecin": 75.5, "outcome": "inactive"}
{"gene symbol": "XRCC1", "siRNA no.": 1, "log2 vehicle/camptothecin viability": -0.159, "viability with camptothecin": 67.4, "outcome": "inactive"}
{"gene symbol": "XRCC1", "siRNA no.": 2, "log2 vehicle/camptothecin viability": -0.499, "viability with camptothecin": 85.9, "outcome": "inactive"}
{"gene symbol": "XRCC1", "siRNA no.": 3, "log2 vehicle/camptothecin viability": 0.221, "viability with camptothecin": 37.4, "outcome": "inactive"}
{"gene symbol": "XRCC1", "siRNA no.": 4, "log2 vehicle/camptothecin viability": 0.228, "viability with camptothecin": 22.5, "outcome": "inactive"}
{"gene symbol": "SERPINA12", "siRNA no.": 1, "log2 vehicle/camptothecin viability": -0.149, "viability with camptothecin": 108, "outcome": "inactive"}
{"gene symbol": "SERPINA12", "siRNA no.": 2, "log2 vehicle/camptothecin viability": -0.0326, "viability with camptothecin": 120, "outcome": "inactive"}
{"gene symbol": "SERPINA12", "siRNA no.": 3, "log2 vehicle/camptothecin viability": -0.296, "viability with camptothecin": 106, "outcome": "inactive"}
{"gene symbol": "SERPINA12", "siRNA no.": 4, "log2 vehicle/camptothecin viability": 0.166, "viability with camptothecin": 23.1, "outcome": "inactive"}
{"gene symbol": "BDH1", "siRNA no.": 1, "log2 vehicle/camptothecin viability": -0.00998, "viability with camptothecin": 31.1, "outcome": "inactive"}
{"gene symbol": "BDH1", "siRNA no.": 2, "log2 vehicle/camptothecin viability": -0.542, "viability with camptothecin": 90.1, "outcome": "inactive"}
{"gene symbol": "BDH1", "siRNA no.": 3, "log2 vehicle/camptothecin viability": -0.0202, "viability with camptothecin": 93.6, "outcome": "inactive"}
{"gene symbol": "PEX7", "siRNA no.": 1, "log2 vehicle/camptothecin viability": -0.244, "viability with camptothecin": 95.6, "outcome": "inactive"}
{"gene symbol": "PEX7", "siRNA no.": 2, "log2 vehicle/camptothecin viability": -0.451, "viability with camptothecin": 76.1, "outcome": "inactive"}
{"gene symbol": "PEX7", "siRNA no.": 3, "log2 vehicle/camptothecin viability": -0.133, "viability with camptothecin": 97.3, "outcome": "inactive"}
{"gene symbol": "PEX7", "siRNA no.": 4, "log2 vehicle/camptothecin viability": -0.151, "viability with camptothecin": 39.1, "outcome": "inactive"}
{"gene symbol": "DAXX", "siRNA no.": 1, "log2 vehicle/camptothecin viability": 0.546, "viability with camptothecin": 67.1, "outcome": "inactive"}
{"gene symbol": "DAXX", "siRNA no.": 2, "log2 vehicle/camptothecin viability": -0.146, "viability with camptothecin": 108, "outcome": "inactive"}
{"gene symbol": "DAXX", "siRNA no.": 3, "log2 vehicle/camptothecin viability": -0.0755, "viability with camptothecin": 89.8, "outcome": "inactive"}
{"gene symbol": "MECR", "siRNA no.": 1, "log2 vehicle/camptothecin viability": -0.349, "viability with camptothecin": 74.7, "outcome": "inactive"}
{"gene symbol": "MECR", "siRNA no.": 2, "log2 vehicle/camptothecin viability": -0.406, "viability with camptothecin": 75.2, "outcome": "inactive"}
{"gene symbol": "MECR", "siRNA no.": 3, "log2 vehicle/camptothecin viability": -0.394, "viability with camptothecin": 93.9, "outcome": "inactive"}
{"gene symbol": "MECR", "siRNA no.": 4, "log2 vehicle/camptothecin viability": -0.127, "viability with camptothecin": 73.3, "outcome": "inactive"}

4 successive reagents from above:
{"gene symbol": "ITGA4", "siRNA no.": 1, "log2 vehicle/camptothecin viability": -0.341, "viability with camptothecin": 68.8, "outcome": "inactive"}
{"gene symbol": "ITGA4", "siRNA no.": 2, "log2 vehicle/camptothecin viability": 0.21, "viability with camptothecin": 71.6, "outcome": "inactive"}
{"gene symbol": "ITGA4", "siRNA no.": 3, "log2 vehicle/camptothecin viability": -0.631, "viability with camptothecin": 81, "outcome": "inactive"}
{"gene symbol": "ITGA4", "siRNA no.": 4, "log2 vehicle/camptothecin viability": -0.0608, "viability with camptothecin": 94, "outcome": "inactive"}
